Assay results from publication PMC12142464, “High-light-inducible proteins control associations between chlorophyll synthase and the Photosystem II biogenesis factor Ycf39” (Plant Physiology, 2025).
No constants are given. Whether binding was seen depends on the method and setting. In cells and extracts the contact can be indirect. Some entries that bind do so weakly or less than the wild type.

Target: High-light-inducible protein D (native) (Synechocystis sp. PCC 6803 (endogenous in Synechocystis)) (UniProt P72932)
Assay: co-IP; f.ChlG isolated with anti-FLAG resin from membranes solubilised with 1% n-dodecyl-β-D-maltoside and 1% glycol-diosgenin; eluate resolved by 2D CN (A8-35 amphipol)/SDS-PAGE, CBB stain; strains f.chlG/ΔchlG (HL 2 h), f.chlG/ΔchlG/ΔhliC (HL 2 h), f.chlG/ΔchlG/ΔhliC/Δycf39 (NL)

B1: High-light-inducible protein D (native) (natural protein, UniProt P72932 1-57, looked up)
chain: MSEELQPNQTPVQEDPKFGFNNYAEKLNGRAAMVGFLLILVIEYFTNQGVLAWLGLR
notes: High-light-inducible protein HliD (6.5 kDa), Synechocystis sp; PCC 6803; also called HliD; ScpE; source: endogenous, Synechocystis solubilised membranes
binding: binds
